In article PMC10570711, “Tetramerization of upstream stimulating factor USF2 requires the elongated bent leucine zipper of the bHLH-LZ domain” (The Journal of Biological Chemistry, 2023):
Residue numbers refer to the chain shown, from its start. For some assays here: A negative result means that nothing was seen under these conditions. For some assays here: A weaker result is weaker than the reference pair of the same experiment. For some assays here: Tags and fusion partners may be left off the protein sequences shown. For some assays here: For at least one entry, the source does not settle the construct or the ends of the probe. For some assays here: At least one verdict was read from the data and is not stated in words by the source.

Sequences of proteins named here, by UniProt entry; tags and fusion partners are left off. Residues count along the entry.
UniProt Q15853, 235-292, stated change not applied: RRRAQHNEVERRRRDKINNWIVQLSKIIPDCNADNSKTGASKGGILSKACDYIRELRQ
UniProt Q15853, 235-346 Q334A: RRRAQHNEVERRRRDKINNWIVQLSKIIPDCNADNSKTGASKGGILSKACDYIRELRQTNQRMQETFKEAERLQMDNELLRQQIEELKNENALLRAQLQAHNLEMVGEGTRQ

Assays:
[1] = target: MBP-USF2_ΔLZ-Ext (Homo sapiens) (UniProt Q15853); assay: EMSA; details: MBP fusion state not stated for this gel; EMSA: 100 nM Cy3-DNA, 10 mM Tris pH 8.0, 50 mM KCl, 1 mM DTT, 2 mM MgCl2, 5% glycerol, 4 C, 2 h; recombinant protein; residues 235-292; protein details: 6xHis-MBP N-terminal; label: 5'-Cy3 on one strand
[2] = target: MBP-USF2 H240E (Homo sapiens) (UniProt Q15853); assay: fluorescence anisotropy; details: more than 5-fold reduced; FA: 20 nM FAM-DNA, 20 mM Tris pH 8.0, 50 mM KCl, 2 mM MgCl2, 0.5% glycerol, 4 C, 3 h; recombinant protein; residues 235-346; protein details: 6xHis-MBP N-terminal; label: 5'-FAM on strand 1
[3] = target: MBP-USF2 K271A (Homo sapiens) (UniProt Q15853); assay: fluorescence anisotropy; details: FA: 20 nM FAM-DNA, 20 mM Tris pH 8.0, 50 mM KCl, 2 mM MgCl2, 0.5% glycerol, 4 C, 3 h; recombinant protein; residues 235-346; protein details: 6xHis-MBP N-terminal; label: 5'-FAM on strand 1
[4] = target: MBP-USF2 K271E (Homo sapiens) (UniProt Q15853); assay: fluorescence anisotropy; details: more than 9-fold reduced; FA: 20 nM FAM-DNA, 20 mM Tris pH 8.0, 50 mM KCl, 2 mM MgCl2, 0.5% glycerol, 4 C, 3 h; recombinant protein; residues 235-346; protein details: 6xHis-MBP N-terminal; label: 5'-FAM on strand 1
[5] = target: T1, MBP-USF2 R247E (Homo sapiens) (UniProt Q15853); assay: fluorescence anisotropy; details: more than 20-fold reduced; FA: 20 nM FAM-DNA, 20 mM Tris pH 8.0, 50 mM KCl, 2 mM MgCl2, 0.5% glycerol, 4 C, 3 h; recombinant protein; residues 235-346; protein details: 6xHis-MBP N-terminal; label: 5'-FAM on strand 1
T1 sequence (looked up): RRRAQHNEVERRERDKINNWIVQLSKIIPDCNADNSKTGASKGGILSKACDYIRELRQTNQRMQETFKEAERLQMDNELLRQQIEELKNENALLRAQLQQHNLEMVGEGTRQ

[6] = target: T2, MBP-USF2 R248E (Homo sapiens) (UniProt Q15853); assay: fluorescence anisotropy; details: more than 14-fold reduced; FA: 20 nM FAM-DNA, 20 mM Tris pH 8.0, 50 mM KCl, 2 mM MgCl2, 0.5% glycerol, 4 C, 3 h; recombinant protein; residues 235-346; protein details: 6xHis-MBP N-terminal; label: 5'-FAM on strand 1
T2 sequence (looked up): T1 sequence (looked up) with E13R, R14E

[7] = target: MBP-USF2_WT (Homo sapiens) (UniProt Q15853); assay: fluorescence anisotropy; details: WT Kd not in the given text; FA: 20 nM FAM-DNA, 20 mM Tris pH 8.0, 50 mM KCl, 2 mM MgCl2, 0.5% glycerol, 4 C, 3 h; recombinant protein; residues 235-346; protein details: 6xHis-MBP N-terminal; label: 5'-FAM on strand 1
[8] = target: USF2_Q334A (Homo sapiens) (UniProt Q15853); assay: fluorescence anisotropy; details: FA: 20 nM FAM-DNA, 20 mM Tris pH 8.0, 50 mM KCl, 2 mM MgCl2, 0.5% glycerol, 4 C, 3 h; recombinant protein; residues 235-346; label: 5'-FAM on strand 1

Sequence | binding result [1] | Kd [2] | Kd [3] | Kd [4] | Kd [5] | Kd [6] | binding result [7] | binding result [8]
GACGGGCACGTGACGCGC (double strand) [Cy3 E-box DNA] | no binding |  |  |  |  |  |  | 
GACGGGCACGTGACGCGC (double strand) [FAM E-box DNA] |  | > 580 nM | > 440 nM | > 970 nM | > 2000 nM | > 1400 nM | binds | binds more weakly
